# Source: PubChem BioAssay (Tox21)
# By UniProt entry, the sequences of proteins in these tests, tags left out.
# UniProt P28223, whole entry, looked up: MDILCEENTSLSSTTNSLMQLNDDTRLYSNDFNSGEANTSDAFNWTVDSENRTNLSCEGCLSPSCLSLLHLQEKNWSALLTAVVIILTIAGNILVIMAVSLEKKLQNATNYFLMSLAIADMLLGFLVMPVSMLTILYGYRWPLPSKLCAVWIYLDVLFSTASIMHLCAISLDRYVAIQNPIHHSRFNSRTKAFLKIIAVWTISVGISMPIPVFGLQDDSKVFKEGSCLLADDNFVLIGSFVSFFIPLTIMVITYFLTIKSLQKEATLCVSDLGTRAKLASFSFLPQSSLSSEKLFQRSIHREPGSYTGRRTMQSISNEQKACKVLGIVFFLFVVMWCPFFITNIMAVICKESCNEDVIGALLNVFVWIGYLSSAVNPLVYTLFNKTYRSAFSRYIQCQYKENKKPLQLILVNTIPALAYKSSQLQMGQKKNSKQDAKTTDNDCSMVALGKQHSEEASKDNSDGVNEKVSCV
# UniProt P14416, whole entry, looked up: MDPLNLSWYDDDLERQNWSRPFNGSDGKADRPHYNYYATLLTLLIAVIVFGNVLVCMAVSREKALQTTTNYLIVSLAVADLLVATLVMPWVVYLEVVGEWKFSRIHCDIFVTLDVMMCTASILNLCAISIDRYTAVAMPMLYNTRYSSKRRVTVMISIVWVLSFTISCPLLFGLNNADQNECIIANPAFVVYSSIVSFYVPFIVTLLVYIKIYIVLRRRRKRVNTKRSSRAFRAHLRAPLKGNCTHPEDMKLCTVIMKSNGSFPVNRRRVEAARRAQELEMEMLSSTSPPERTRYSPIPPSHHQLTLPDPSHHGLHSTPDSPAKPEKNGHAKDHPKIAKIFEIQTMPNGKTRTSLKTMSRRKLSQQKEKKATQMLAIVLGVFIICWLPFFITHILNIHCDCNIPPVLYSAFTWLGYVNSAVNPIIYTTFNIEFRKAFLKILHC
# Several values for one entry are separate records, joined by “and”; a condition that tells them apart may be missing. Equal values may be shown once. Inconclusive means that the source gave no clear call. Such entries were picked first, then a sample of the others. For part of these data: Potencies of inconclusive entries are doubtful fits and often do not repeat. A structure can be active in one record and inactive in another. Activity calls are given as the source filed them. Unless noted, calls come from the whole dose curve.
# Columns and labels:
# [1] = Nuclear factor erythroid 2-related factor 2/antioxidant responsive element (Nrf2/ARE) small molecule agonists: luciferase reporter gene qHTS assay in human keratinocytes (AID 1919969); note: nearly all actives have a fitted effect of over 35% in size; note: potency is the fitted concentration of half-maximal effect
# [2] = G protein-coupled receptor (GPCR) small molecule agonists, calcium flux assay: HEK293 wild type cell line counter screen (AID 1920065); note: potency is the fitted concentration of half-maximal effect
# Method in brief: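 Counter-screen of the Tox21 10K library for non-specific calcium release: dye-loaded cells received compounds in DMSO and were monitored by kinetic fluorescence (480/540 nm, 3 min). Fifteen concentrations, run in triplicate.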
# [3] = p53 small molecule agonists, cell-based qHTS assay with rat liver microsomes: qHTS cell viability counter screen (AID 1963580); note: potency is the fitted concentration of half-maximal effect; nearly all actives have a fitted effect of over 45% in size
# Method in brief: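 Viability is assessed in parallel with the p53 reporter read: HCT-116 p53RE-bla cells receive compounds plus rat microsomes and NADPH (0.5 mg/mL final apiece), incubate 16 h at 37 C, and then CellTiter-Glo luminescence is recorded.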
# [4] = molecular target: 5-hydroxytryptamine receptor 2A (Homo sapiens) (UniProt P28223); assay: 5-hydroxytryptamine receptor 2A (HTR2A) small molecule agonists, cell-based qHTS assay (AID 1963587); settings: HTR2A-CHO cells, calcium flux fluorescence, agonist mode; activation: at 76.8 µM (top of the series); note: potency is the fitted concentration of half-maximal effect; nearly all actives have a fitted effect of over 30% in size
# Method in brief: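 CHO cells stably expressing human HTR2A, plated 18 h, loaded with calcium dye 1 h at 37 C. Agonist mode: compounds added and intracellular calcium fluorescence recorded kinetically for 2 min at 1 sec intervals.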
# [5] = molecular target: Beta-2 adrenergic receptor (Homo sapiens) (UniProt P07550); assay: Adrenergic beta2 receptor (ADRB2) small molecule agonists, cell-based qHTS assay (AID 1963593); settings: CHO-ADRB2 cells, cAMP HTRF, 30 min; activation: at 92.4 µM (top of the series) unless noted; note: potency is the fitted concentration of half-maximal effect
# Method in brief: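 CHO cells stably over-expressing ADRB2 were plated overnight at 37C, then dosed with compounds plus a stimulation mix containing 100uM IBMX and 25uM Ro-20-1724 for 0.5hr at room temperature. cAMP was measured by HTRF competition, 1hr.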
# [6] = p53 small molecule agonists, cell-based qHTS assay with human liver microsomes (AID 1963577); settings: HCT-116 p53RE-bla with human liver microsomes, ratio, 16 h; activation: at 66 µM (top of the series) unless noted; note: potency is the fitted concentration of half-maximal effect;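 for activation: p53 response element beta-lactamase reporter cells with liver microsomes plus NADPH; % is set by controls: 0 for no effect and ±100 for the full control effect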
# Method in brief: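 p53RE-bla cells; 5 h settle, 37 C/5% CO2; cpd + HLM 0.5 mg/mL + NADPH 0.5 mg/mL (final); 16 h 37 C; LiveBLAzer 2 h RT dark; fluorescence readout.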
# [7] = p53 small molecule agonists, cell-based qHTS assay with rat liver microsomes (AID 1963578); settings: HCT-116 p53RE-bla, beta-lactamase ratio, 16 h; activation: at 66 µM (top of the series) unless noted; note: potency is the fitted concentration of half-maximal effect
# Method in brief: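 Rat liver microsome activation: microsomes 0.5 mg/mL, NADPH 0.5 mg/mL final; p53RE-bla cells, 16 h 37 C; LiveBLAzer readout, 2 h RT dark.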
# [8] = molecular target: 5-hydroxytryptamine receptor 2A (Homo sapiens) (UniProt P28223); assay: 5-hydroxytryptamine receptor 2A (HTR2A) small molecule antagonists, cell-based qHTS assay (AID 1963586); note: potency is the fitted concentration of half-maximal effect; nearly all actives have a fitted effect of over 45% in size
# Method in brief: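 Antagonist-mode intracellular calcium assay: DOI (4 nM) added after 5 min compound pre-incubation at room temperature to dye-loaded HTR2A-CHO cells. Fluorescence followed for 3 min, sampled every second.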
# [9] = molecular target: D(2) dopamine receptor (Homo sapiens) (UniProt P14416); assay: Dopamine D2 receptor (DRD2) small molecule agonists, cell-based qHTS assay (AID 1963594); settings: HEK293-DRD2 cAMP HTRF, agonist mode, 30 min; activation: at 92.4 µM (top of the series) unless noted; note: nearly all actives have a fitted effect of over 35% in size; note: potency is the fitted concentration of half-maximal effect; for activation: % is set by controls: 0 for no effect and ±100 for the full control effect
# Method in brief: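 HEK293 cells stably expressing human DRD2, pre-treated with PDE inhibitor Ro20-1724 (0.1 mM final) and compound 10 min at room temperature, then stimulated with NKH477 (200nM […]) for 30 min. cAMP read by HTRF (665/620 nm).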
# [10] = p53 small molecule agonists, cell-based qHTS assay: qHTS cell viability counter screen (AID 1963581); note: potency is the fitted concentration of half-maximal effect; nearly all actives have a fitted effect of over 45% in size
# Method in brief: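 Cells: HCT-116 with p53 response element-driven beta-lactamase. Treatment: 16 h, 37 C, compounds in DMSO. Read: CellTiter-Glo luminescence after 30 min RT.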
# [11] = p53 small molecule agonists, cell-based qHTS assay (AID 1963582; active = well fitted activation curve with a large enough effect in the signal ratio in the repeat runs, not every such curve was filed as active; inconclusive = weak or mixed curves; the % refers to the signal ratio; note: potency is the fitted concentration of half-maximal effect; for activation: % is set by controls: 0 for no effect and ±100 for the full control effect); settings: HCT-116 p53RE-bla reporter, beta-lactamase FRET ratio, 16 h; activation: at 66 µM (top of the series) unless noted
# Method in brief: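 Quantitative HTS in p53RE-bla cells: after a 5 h settling period, compounds delivered in DMSO were left on cells for 16 h at 37 C, and reporter induction was measured as fluorescence following 2 h substrate loading.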
# [12] = cAMP Responsive Elements (CRE) small molecule agonists, cell-based qHTS assay (AID 1963590); settings: CRE-bla HEK293T, beta-lactamase FRET ratio, 3 h; activation: at 92.4 µM (top of the series) unless noted; note: potency is the fitted concentration of half-maximal effect
# Method in brief: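 Agonist mode qHTS in CRE-bla HEK 293T cells: compounds dosed from DMSO for 3 h at 37 C/5% CO2, followed by LiveBLAzer B/G FRET substrate for 2 h at room temperature.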
# [13] = cAMP Responsive Elements (CRE) small molecule antagonists, cell-based qHTS assay (AID 1963591; active = well fitted inhibition curve with a large enough effect in the signal ratio in the repeat runs, not every such curve was filed as active; inconclusive = weak or mixed curves, or effect the other way; the % refers to the signal ratio; note: potency is the fitted concentration of half-maximal effect); settings: CRE-bla HEK293T, beta-lactamase FRET ratio; activity change, negative = inhibition: at 92.4 µM (top of the series) unless noted
# Method in brief: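 Antagonist mode: test compounds are co-incubated with the adenylyl cyclase activator NKH477 (0.25 uM final) on CRE-bla HEK293T cells for 3 h at 37 °C, followed by LiveBLAzer substrate loading.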
# [14] = molecular target: Beta-2 adrenergic receptor (Homo sapiens) (UniProt P07550); assay: Adrenergic beta2 receptor (ADRB2) small molecule antagonists, cell-based qHTS assay (AID 1963592); settings: CHO-ADRB2 cells, isoproterenol-stimulated cAMP HTRF ratio, 0.5 h; activity change, negative = inhibition: at 92.4 µM (top of the series) unless noted; note: potency is the fitted concentration of half-maximal effect; nearly all actives have a fitted effect of over 50% in size
# Method in brief: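 Cells (CHO, stable ADRB2 overexpression) incubated 18-20hr at 37C; compounds added from DMSO; agonist mix (1nM isoproterenol, 100uM IBMX, 25uM Ro-20-1724) added; 0.5hr RT; d2-cAMP and anti-cAMP-cryptate added; 1hr RT; 665/615 nm read.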
# [15] = molecular target: D(2) dopamine receptor (Homo sapiens) (UniProt P14416); assay: Dopamine D2 receptor (DRD2) small molecule antagonists, cell-based qHTS assay (AID 1963595; active = well fitted inhibition curve with a large enough effect in the signal ratio in the repeat runs, with a control signal flat; inconclusive = weak or mixed curves, or effect the other way; the % refers to the signal ratio; note: % is set by controls: 0 for no effect and ±100 for the full control effect); settings: HEK293-DRD2 cAMP HTRF antagonist mode; activity change, negative = inhibition: at 92.4 µM (top of the series) unless noted
# Method in brief: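 Stable D2 receptor HEK293 line, 24 h after seeding. Compound preincubated 10 min, then quinpirole (12 nM) with forskolin analogue NKH477 (200 nM), 30 min, room temperature. Detection by time-resolved FRET of cAMP.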
structure (smiles),measurement,setting,value
COCCl,Potency,[1],inactive
same,Potency,[2],"inconclusive: 36 µM [activator, single point]"
same,Potency,[3],"inconclusive: 0.378 µM [cytotoxic, single point]"
same,Potency,[4],active: 22.7 µM
same,Potency,[5],"inconclusive: 71.3 µM [inhibitor, partial curve, poor fit]"
COP(=S)(OC)Oc1ccc(SC)c(C)c1,Potency,[1],active: 24.3 µM
same,Potency,[6],"inconclusive: 403 nM [fluorescent, full curve] and inconclusive: 354 nM [fluorescent, full curve]"
same,Potency,[7],"inconclusive: 3.2 µM [fluorescent] and inconclusive: 2.89 µM [fluorescent, full curve] and inconclusive: 3.97 µM [fluorescent, full curve]"
same,Potency,[8],"inconclusive: 18.3 µM [inhibitor, partial curve, poor fit]"
same,Potency,[5],"inconclusive: 60.4 µM [inhibitor, single point] and inconclusive: 211 nM [inhibitor, partial curve, poor fit]"
same,Potency,[9],inactive
O=C(O)COc1nc(Cl)c(Cl)cc1Cl,Potency,[1],"inconclusive: 6.26 µM [activator, single point]"
same,Potency,[6],inactive
same,Potency,[10],"inconclusive: 26.3 µM [rising, partial curve, poor fit]"
same,Potency,[11],inconclusive: 31.8 µM
same,Potency,[12],inconclusive: 37.3 µM
same,Potency,[13],inconclusive: 35.2 µM [fluorescent]
same,Potency,[14],"inconclusive: 24.9 µM [rising, full curve, poor fit]"
same,Potency,[5],inconclusive: 49.7 µM
same,Potency,[9],inconclusive: 49.7 µM
same,"activity change, negative = inhibition",[15],inconclusive: 11.8%
CCOP(=S)(OCC)O/N=C(\C#N)c1ccccc1,Potency,[1],"inconclusive: 26.6 µM [activator, single point]"
same,Potency,[6],"active: 2.57 µM and inconclusive: 1.12 µM [fluorescent, full curve]"
same,Potency,[7],"inconclusive: 913 nM [fluorescent, full curve] and inconclusive: 890 nM [fluorescent, full curve]"
same,activation,[11],inconclusive: 22.8%
same,Potency,[13],"inconclusive: 54.5 µM [inhibitor, partial curve]"
same,Potency,[5],inactive

# Part of the list above, tab-delimited.
structure (smiles)	measurement	setting	value
CCOP(=S)(OCC)O/N=C(\C#N)c1ccccc1	Potency	[7]	inconclusive: 913 nM [fluorescent, full curve] and inconclusive: 890 nM [fluorescent, full curve]
same	activation	[11]	inconclusive: 22.8%
